Taken from: PubChem BioAssay AID1224826 (NIAID, 2016)
The whole screen tested about 17,000 reagents; below is a part drawn at random. Of all reagents, about 1,110 (6.6%) got an active call. 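Active means lowered or raised reporter signal; replicate intensities are raw and not normalised per plate.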 A number with no mark means an inactive call. Reagents against one gene are numbered here.

- Assay: 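Genes that change LPS-induced Tnf promoter activity in mouse macrophages when knocked down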 (primary screen)
- Cell system: RAW264.7 G9 macrophages from mouse bearing reporters for p65 (GFP) and the Tnf promoter (mCherry)
- Knock-down reagent: siRNA pool against mouse genes, 100 nM
- Time to read-out: 16 h of LPS stimulation, after 2 days of siRNA transfection
- Challenge: bacterial lipopolysaccharide (Salmonella minnesota R595), 10 ng/ml
- Measured: 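Imaged Tnf reporter mCherry in nuclei, minus background, normalised per plate to the median and expressed as robust z-scores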
- Direction: Tnf reporter robust z-score: higher = stronger Tnf promoter reporter signal after LPS; Tnf reporter intensity: higher = stronger Tnf promoter reporter signal
- Active means: 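Called active when robust z-score is at most -1.3, matching the median of the Tlr4 knock-down control, or over 3; control wells and wells with under 50 cells never active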
- Calls: active = Tnf reporter clearly lowered or raised; inactive = no clear change in Tnf reporter

gene	reagent no.	Tnf reporter robust z-score	fewer than 50 cells in well	Tnf reporter intensity, replicate 1	Tnf reporter intensity, replicate 2
Dnai7	1	0.74	enough cells in well	133	320
Kctd3	1	-0.13	enough cells in well	173	133
Gadd45gip1	1	0.41	enough cells in well	309	253
Ppip5k1	1	0.82	enough cells in well	282	243
Acad8	1	-0.74	enough cells in well	139	156
F13a1	1	0.6	enough cells in well	243	313
Cxcr3	1	-0.42	enough cells in well	139	334
Chrna1	1	-0.31	enough cells in well	256	153
Zc3h3	1	0.44	enough cells in well	178	103
Pik3c3	1	1.13	enough cells in well	324	280
Tbata	1	-0.65	enough cells in well	149	64.8
2310033P09Rik	1		fewer than 50 cells per well; well left out of calls	141	46.8
Rad50	1	1.92	enough cells in well	534	321
L3hypdh	1	0.59	enough cells in well	296	79.5
Sdsl	1	1.31	enough cells in well	354	352
Disp1	1	-0.86	enough cells in well	115	93.5
Defb38	1	-1.62 (active)	enough cells in well	123	42.5
Mtmr10	1	0.3	enough cells in well	245	208
Yod1	1	1.31	enough cells in well	236	296
Mrgpra5	1	0.2	enough cells in well	264	101
Fry	1	0.23	enough cells in well	163	206
Fry	2	-0.43	enough cells in well	133	183
Rhpn2	1	0.61	enough cells in well	162	147
Proser3	1	0.08	enough cells in well	171	171
Pramel3c	1		fewer than 50 cells per well; well left out of calls	254	57.9
Prodh2	1	0.05	enough cells in well	257	189
Cmtm8	1	2.16	enough cells in well	259	137
Fam20c	1	0.12	enough cells in well	185	250
Ffar1	1	0.41	enough cells in well	224	372
Cnn1	1	-0.86	enough cells in well	135	101
Rnf121	1	1.63	enough cells in well	200	196
Gng3	1	-0.37	enough cells in well	176	282
Krt90	1		fewer than 50 cells per well; well left out of calls	134	45.8
Lcp2	1		fewer than 50 cells per well; well left out of calls	156	105
Ccnb3	1	0.4	enough cells in well	304	211
Myh1	1	1.21	enough cells in well	363	295
Clec4a2	1	0.93	enough cells in well	184	275
Irf1	1	0.56	enough cells in well	257	198
Shd	1		fewer than 50 cells per well; well left out of calls	0	38
Zfp180	1	-0.34	enough cells in well	70.9	155
Fstl1	1	-1.02	enough cells in well	175	149
Pafah1b3	1	-0.39	enough cells in well	214	154
Vamp3	1	-0.08	enough cells in well	117	85.2
Strbp	1		fewer than 50 cells per well; well left out of calls	52.3	61.3
Strbp	2	0.86	enough cells in well	237	181
Ampd3	1	1.7	enough cells in well	267	263
Glp1r	1	0.29	enough cells in well	234	327
Rcsd1	1	0.47	enough cells in well	273	202
Cyfip2	1	-0.7	enough cells in well	172	162
Polr2a	1	-1.59 (active)	enough cells in well	118	69.1
Pudp	1	-0.29	enough cells in well	188	78.2
BC002059	1	-0.28	enough cells in well	184	192
Eno2	1	-0.49	enough cells in well	188	196
Or5p52	1	-1.96 (active)	enough cells in well	37	36.4
Susd2	1	-0.74	enough cells in well	82.3	58.9
Obp2a	1	-0.49	enough cells in well	172	173
Rpgrip1	1	0.49	enough cells in well	460	173
Cacna2d1	1	-1.35 (active)	enough cells in well	71.6	98.8
